{"source": "patent US8933195B2", "about": "“Histone deacetylase inhibitors and synthetic method thereof and use thereof in manufacture of medicaments” (Nanjing Yoko Biomedical R & D Ltd., priority 2011, dated 2015)", "test_in_all_cases": "Subcutaneously transplanted tumors in nude mice", "key": {"[1]": {"system": "human colon cancer HCT-116", "assay_type": "in vivo, BALB/cA nude mice", "conditions": "50 mg/kg qd × 3w iv, after three weeks", "method": "The compound 1-3 is powder and includes three dosage groups: 20 mg/kg, 10 mg/kg and 5 mg/kg. The commercially available Zolinza (SAHA) is used as a positive control. The solvents are isopropanol and anhydrous ethanol (mixed in the volume ratio of 1:1). The test sample is dissolved with solvents and physiological saline in the ratio of 1:1 for use, and the above solvents and physiological saline are dissolved in the ratio of 1:1 as a negative control.\nThe subjects are female BALB/cA nude mice with the weight of 16±2 g and at the age of 4-5 weeks, purchased from Shanghai Institute of Materia Medica, Chinese Academy of Sciences (production certificate NO. SCXK (Shanghai) 2008-0017). […]\nTumor tissues in the vigorous growth period are cut into about 1.5 mm^3, and inoculated to the right axilla subcutaneous layer of the nude mice under aseptic conditions. For the subcutaneously transplanted tumors of the nude mice, the diameter of the transplanted tumors is measured by a vernier caliper. […] The diameter of the transplanted tumors is measured twice per week in the whole experimental process, and meanwhile the weight of the mice is weighed. […]\nThe experimental methods and processes are the same as Embodiment 100. […] The tumor inhibition rate is calculated according to the method in Embodiment 100."}, "[2]": {"system": "Human Blood Acute Monocytic Leukemia U937", "assay_type": "in vivo", "conditions": "50 mg/kg", "method": "(§1) Tumor tissues in the vigorous growth period are cut into about 1.5 mm^3, and inoculated to the right axilla subcutaneous layer of the nude mice under aseptic conditions. For the subcutaneously transplanted tumors of the nude mice, the diameter of the transplanted tumors is measured by a vernier caliper. The mice are randomly grouped after the tumors grow to 100-200 mm^3. 20 mg/kg, 10 mg/kg and 5 mg/kg of the compound 1-3 is administrated to the mice by caudal veins three times each week, for three successive weeks. 50 mg/kg of positive control pharmaceutical SAHA is administrated to the mice once every day, for three successive weeks. The diameter of the transplanted tumors is measured twice per week in the whole experimental process, and meanwhile the weight of the mice is weighed. The calculation formula of tumor volume (TV) is TV=½×a×b^2, where a and b represent length and width, respectively.\n(§2) The relative tumor volume (RTV) is calculated according to the measured results, with the following calculation formula: RTV=Vt/V0, where V0 is the tumor volume obtained by measurement during administration in different cages (i.e., d0), Vt is the tumor volume obtained by measurement at each time. The evaluation indexes of the antitumor activity are: 1) the relative tumor proliferation ratio T/C (%), the calculation formula of the relative tumor proliferation ratio is as follows: T/C(%)=(TRTV/CRTV)×100%, where TRTV is the treatment group RTV, and CRTV is the negative control group RTV; 2) the tumor volume growth inhibition ratio GI %, the calculation formula of the tumor volume growth inhibition ratio is as follows: GI %=[1−(TVt−TV0)/(CVt−CT0)]×100%, where TVt is the tumor volume of the treatment group measured at each time, TV0 is the tumor volume of the treatment group obtained during administration in different cages, CVt is the tumor volume of the control group measured at each time, and CV0 is the tumor volume of the control group obtained during administration in different cages; and 3) the tumor weight inhibition ratio, the calculation formula of the tumor weight inhibition ratio is as follows: the tumor weight inhibition ratio. (Wc−WT)Wc×100%, where Wc is the tumor weight of the control group, and WT is the tumor weight of the treatment group.\n(§3) The experimental methods are the same as Embodiment 100. Solvents, SAHA (50 mg/kg), the compound 1-3 (20 mg/kg), the compound 1-6 (20 mg/kg) and the compound 1-8 (20 mg/kg) are administrated to mice with different tumors, respectively. The tumor inhibition rates are calculated according to the methods in Embodiment 100."}, "[3]": {"system": "Human Lymphoma Cell Ramos", "assay_type": "in vivo", "conditions": "50 mg/kg", "method": "as §1, §2, §3"}, "[4]": {"system": "Human Lung Caner Cell NCI-H1975", "assay_type": "in vivo", "conditions": "50 mg/kg", "method": "as §1, §2, §3"}, "Human Melanoma Cell A875": {"system": "Human Melanoma Cell A875", "assay_type": "in vivo", "conditions": "50 mg/kg", "method": "as §1, §2, §3"}, "[5]": {"system": "Human Gastric Adenocarcinoma Cell BGC-823", "assay_type": "in vivo", "conditions": "50 mg/kg", "method": "as §1, §2, §3"}}, "data": [{"smiles": "O=C(CCCCCCC(=O)Nc1ccccc1)NO", "note": "[SAHA, suberoylanilide hydroxamic acid, reference compound]", "values": [{"measurement": "1-T/C tumor inhibition rate", "setting": "[1]; Table 1.1", "result": 52.99, "unit": "%"}, {"measurement": "1-T/C tumor inhibition rate", "setting": "[1]; Table 2.1", "result": 56.32, "unit": "%"}, {"measurement": "Tumor Inhibition Rate (1 − T/C) × 100%", "setting": "[2]", "result": 63.22, "unit": "%"}, {"measurement": "Tumor Inhibition Rate (1 − T/C) × 100%", "setting": "[3]", "result": 57.81, "unit": "%"}, {"measurement": "Tumor Inhibition Rate (1 − T/C) × 100%", "setting": "[4]", "result": 58.03, "unit": "%"}, {"measurement": "Tumor Inhibition Rate (1 − T/C) × 100%", "setting": "Human Melanoma Cell A875", "result": 62.01, "unit": "%"}, {"measurement": "Tumor Inhibition Rate (1 − T/C) × 100%", "setting": "[5]", "result": 54.89, "unit": "%"}]}]}
